Results: article PMC12797002, “Hydrophobic residues in the α‐synuclein NAC domain drive seed‐competent fibril formation and are targeted by peptide inhibitors” (The Febs Journal, 2025)
These are yes or no findings as the source states them, for the method shown.

Target: scrambled control peptide
Assay: ThT aggregation kinetics; inhibitor peptides alone (Fig. S8); both purified

B1: scrambled control peptide (peptide)
peptide: VSRKIVRRRRR
B1 was tested, and the binding was “no binding”.
